These are yes or no findings as the source states them, for the method shown. In cells and extracts the contact can be indirect. A yes stands for co-enrichment or nearness to the bait. Other partners may have been found.

The chains behind the UniProt entries cited, without tags or fusion partners.
UniProt O14965: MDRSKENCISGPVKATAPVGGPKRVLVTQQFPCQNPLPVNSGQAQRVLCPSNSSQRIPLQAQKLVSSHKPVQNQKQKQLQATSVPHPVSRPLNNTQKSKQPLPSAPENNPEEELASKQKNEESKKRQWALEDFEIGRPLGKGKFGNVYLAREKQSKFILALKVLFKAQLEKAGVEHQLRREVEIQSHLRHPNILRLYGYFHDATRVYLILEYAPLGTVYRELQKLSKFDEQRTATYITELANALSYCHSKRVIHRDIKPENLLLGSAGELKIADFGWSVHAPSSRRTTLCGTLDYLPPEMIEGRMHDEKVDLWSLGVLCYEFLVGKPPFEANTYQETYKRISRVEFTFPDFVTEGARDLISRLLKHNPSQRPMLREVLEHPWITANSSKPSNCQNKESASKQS

The assay addresses AURKA-Flag (human) (UniProt O14965). The experiment in a line: affinity purification with mass spectrometry; SILAC: cells stably expressing AURKA-Flag (heavy D3-leucine) against Flag control cells (light), RIPA lysates mixed 1:1, anti-Flag M2 agarose, Flag peptide elution, LC-MS/MS.

With “heterogeneous nuclear ribonucleoprotein K (hnRNP K), endogenous (from UniProt P61978 1-463)”, the binding result is recorded as “binds”.

For the origin of these results see PMC4735655.
